The other results are listed elsewhere or left out.
What was measured:
Assay in all cases: log2 fold change, soluble protein after heating vs DMSO (PISA); higher = thermal stabilisation; K562 cells, 10 uM, 30 min; active = over 0.2 and 3.5 SD of the protein, either way, in both replicates (recomputed)
saracatinib = compound: CN1CCN(CCOc2cc(OC3CCOCC3)c3c(Nc4c(Cl)ccc5c4OCO5)ncnc3c2)CC1 [saracatinib]
How it was run: (§1)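 For each measurement, 10 μM compound was applied for 30 min to K562 cells at 2×10^6 cells/mL. Aliquots were heated for 3 min across 48°C-58°C, pooled, and extracted in PBS with 0.5% NP-40 at 4°C; the supernatant after 21,000xg for 90 min was soluble protein. This was quantified by TMTpro 16plex LC-MS/MS with channel sums equalised, and thermal stability was reported relative to control samples from duplicates, on a log2 fold-change scale.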

Sequences of proteins named here, by UniProt entry; tags and fusion partners are left off. A change or cut given only in a name is not applied to a line headed by its entry.
UniProt O95997: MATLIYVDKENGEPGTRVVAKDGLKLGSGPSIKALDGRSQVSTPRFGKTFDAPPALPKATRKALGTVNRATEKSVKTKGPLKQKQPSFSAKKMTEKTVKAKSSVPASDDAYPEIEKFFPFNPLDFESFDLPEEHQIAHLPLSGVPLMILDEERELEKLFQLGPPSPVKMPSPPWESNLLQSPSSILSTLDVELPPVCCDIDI
UniProt P28072: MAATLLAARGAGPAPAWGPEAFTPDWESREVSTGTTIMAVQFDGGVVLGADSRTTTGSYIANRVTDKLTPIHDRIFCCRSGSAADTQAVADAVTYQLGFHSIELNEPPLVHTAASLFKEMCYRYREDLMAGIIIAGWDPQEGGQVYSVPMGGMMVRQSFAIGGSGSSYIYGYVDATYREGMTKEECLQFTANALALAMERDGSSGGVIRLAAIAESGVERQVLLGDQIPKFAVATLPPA
UniProt Q9P2B2: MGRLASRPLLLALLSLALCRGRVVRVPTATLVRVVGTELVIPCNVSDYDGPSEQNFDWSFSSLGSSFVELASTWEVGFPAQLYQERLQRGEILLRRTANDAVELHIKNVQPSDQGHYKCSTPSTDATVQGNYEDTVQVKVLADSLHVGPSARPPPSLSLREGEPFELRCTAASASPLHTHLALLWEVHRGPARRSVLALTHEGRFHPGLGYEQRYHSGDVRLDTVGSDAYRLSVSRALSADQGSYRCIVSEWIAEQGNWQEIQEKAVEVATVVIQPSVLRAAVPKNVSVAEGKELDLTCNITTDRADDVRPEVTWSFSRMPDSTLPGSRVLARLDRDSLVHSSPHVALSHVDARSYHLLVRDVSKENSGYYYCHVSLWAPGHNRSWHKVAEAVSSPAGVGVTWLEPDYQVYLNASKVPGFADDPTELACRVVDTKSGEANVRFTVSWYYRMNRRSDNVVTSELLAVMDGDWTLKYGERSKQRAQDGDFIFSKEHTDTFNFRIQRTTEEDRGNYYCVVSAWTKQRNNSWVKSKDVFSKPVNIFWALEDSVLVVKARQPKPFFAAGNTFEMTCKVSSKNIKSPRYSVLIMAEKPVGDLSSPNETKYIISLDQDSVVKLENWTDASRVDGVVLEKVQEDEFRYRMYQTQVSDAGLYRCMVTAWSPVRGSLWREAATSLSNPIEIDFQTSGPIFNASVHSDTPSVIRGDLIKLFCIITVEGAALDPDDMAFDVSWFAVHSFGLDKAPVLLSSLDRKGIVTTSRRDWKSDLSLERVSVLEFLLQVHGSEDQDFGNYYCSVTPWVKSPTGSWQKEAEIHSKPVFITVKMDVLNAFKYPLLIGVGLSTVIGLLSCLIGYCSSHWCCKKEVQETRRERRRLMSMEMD
UniProt Q86TP1: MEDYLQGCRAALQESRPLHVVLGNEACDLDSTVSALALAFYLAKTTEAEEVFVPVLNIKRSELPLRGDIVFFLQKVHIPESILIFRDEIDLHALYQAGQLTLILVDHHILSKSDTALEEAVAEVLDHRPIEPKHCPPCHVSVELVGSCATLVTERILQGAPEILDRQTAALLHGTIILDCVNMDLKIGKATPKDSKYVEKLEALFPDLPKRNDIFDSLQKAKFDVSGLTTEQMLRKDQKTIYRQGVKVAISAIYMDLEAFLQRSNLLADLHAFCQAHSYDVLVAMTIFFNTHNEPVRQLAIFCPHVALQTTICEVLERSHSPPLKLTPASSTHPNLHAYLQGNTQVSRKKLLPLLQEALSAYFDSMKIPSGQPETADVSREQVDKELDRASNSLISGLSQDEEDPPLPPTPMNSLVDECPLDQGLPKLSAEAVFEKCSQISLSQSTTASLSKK
UniProt Q15257: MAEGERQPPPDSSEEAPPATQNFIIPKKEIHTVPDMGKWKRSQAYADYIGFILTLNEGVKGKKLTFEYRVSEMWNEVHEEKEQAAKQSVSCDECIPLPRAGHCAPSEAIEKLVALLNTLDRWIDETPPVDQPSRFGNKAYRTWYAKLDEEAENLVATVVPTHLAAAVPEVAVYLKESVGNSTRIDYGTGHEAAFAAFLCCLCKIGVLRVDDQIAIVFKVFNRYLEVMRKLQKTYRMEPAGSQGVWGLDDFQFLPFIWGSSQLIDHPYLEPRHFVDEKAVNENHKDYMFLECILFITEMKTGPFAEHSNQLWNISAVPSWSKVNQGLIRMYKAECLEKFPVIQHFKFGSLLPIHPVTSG
UniProt Q7Z7A4: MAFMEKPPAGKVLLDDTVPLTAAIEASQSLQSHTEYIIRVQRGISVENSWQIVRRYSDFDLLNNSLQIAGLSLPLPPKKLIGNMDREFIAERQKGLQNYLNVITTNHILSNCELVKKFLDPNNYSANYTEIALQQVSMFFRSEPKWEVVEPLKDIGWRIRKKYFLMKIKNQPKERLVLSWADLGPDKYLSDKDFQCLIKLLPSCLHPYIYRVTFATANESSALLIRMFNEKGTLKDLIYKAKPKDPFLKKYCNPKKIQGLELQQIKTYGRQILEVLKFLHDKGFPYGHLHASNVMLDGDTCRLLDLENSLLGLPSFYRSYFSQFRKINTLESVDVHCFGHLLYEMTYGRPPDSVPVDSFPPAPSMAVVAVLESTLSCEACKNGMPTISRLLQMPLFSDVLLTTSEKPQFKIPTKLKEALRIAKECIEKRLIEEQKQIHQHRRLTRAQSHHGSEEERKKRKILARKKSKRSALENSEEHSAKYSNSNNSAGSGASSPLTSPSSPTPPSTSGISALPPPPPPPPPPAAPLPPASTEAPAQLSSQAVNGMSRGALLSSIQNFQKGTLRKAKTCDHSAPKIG
UniProt P53801: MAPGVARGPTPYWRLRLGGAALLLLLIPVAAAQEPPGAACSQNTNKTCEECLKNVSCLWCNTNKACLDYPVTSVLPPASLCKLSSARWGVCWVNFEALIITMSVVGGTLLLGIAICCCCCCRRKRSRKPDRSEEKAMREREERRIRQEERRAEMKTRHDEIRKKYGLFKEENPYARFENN
UniProt O00233: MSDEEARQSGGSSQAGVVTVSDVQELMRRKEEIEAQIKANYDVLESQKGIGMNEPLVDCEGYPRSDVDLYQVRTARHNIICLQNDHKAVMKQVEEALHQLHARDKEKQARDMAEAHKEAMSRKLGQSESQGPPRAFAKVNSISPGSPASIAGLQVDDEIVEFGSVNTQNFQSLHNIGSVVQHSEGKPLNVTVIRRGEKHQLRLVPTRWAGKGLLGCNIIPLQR
UniProt P43686, whole entry, looked up: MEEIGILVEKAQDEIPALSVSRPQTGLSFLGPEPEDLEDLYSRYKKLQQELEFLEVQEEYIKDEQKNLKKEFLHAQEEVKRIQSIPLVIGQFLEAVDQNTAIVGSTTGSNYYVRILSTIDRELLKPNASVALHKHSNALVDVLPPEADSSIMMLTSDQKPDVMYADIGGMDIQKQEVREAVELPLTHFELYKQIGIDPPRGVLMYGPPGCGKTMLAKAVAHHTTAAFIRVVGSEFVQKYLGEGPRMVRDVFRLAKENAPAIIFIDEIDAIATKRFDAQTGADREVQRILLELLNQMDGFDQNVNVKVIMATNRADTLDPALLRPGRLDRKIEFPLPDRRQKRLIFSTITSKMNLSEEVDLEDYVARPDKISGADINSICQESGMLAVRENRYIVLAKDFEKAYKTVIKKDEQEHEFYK
UniProt P06737: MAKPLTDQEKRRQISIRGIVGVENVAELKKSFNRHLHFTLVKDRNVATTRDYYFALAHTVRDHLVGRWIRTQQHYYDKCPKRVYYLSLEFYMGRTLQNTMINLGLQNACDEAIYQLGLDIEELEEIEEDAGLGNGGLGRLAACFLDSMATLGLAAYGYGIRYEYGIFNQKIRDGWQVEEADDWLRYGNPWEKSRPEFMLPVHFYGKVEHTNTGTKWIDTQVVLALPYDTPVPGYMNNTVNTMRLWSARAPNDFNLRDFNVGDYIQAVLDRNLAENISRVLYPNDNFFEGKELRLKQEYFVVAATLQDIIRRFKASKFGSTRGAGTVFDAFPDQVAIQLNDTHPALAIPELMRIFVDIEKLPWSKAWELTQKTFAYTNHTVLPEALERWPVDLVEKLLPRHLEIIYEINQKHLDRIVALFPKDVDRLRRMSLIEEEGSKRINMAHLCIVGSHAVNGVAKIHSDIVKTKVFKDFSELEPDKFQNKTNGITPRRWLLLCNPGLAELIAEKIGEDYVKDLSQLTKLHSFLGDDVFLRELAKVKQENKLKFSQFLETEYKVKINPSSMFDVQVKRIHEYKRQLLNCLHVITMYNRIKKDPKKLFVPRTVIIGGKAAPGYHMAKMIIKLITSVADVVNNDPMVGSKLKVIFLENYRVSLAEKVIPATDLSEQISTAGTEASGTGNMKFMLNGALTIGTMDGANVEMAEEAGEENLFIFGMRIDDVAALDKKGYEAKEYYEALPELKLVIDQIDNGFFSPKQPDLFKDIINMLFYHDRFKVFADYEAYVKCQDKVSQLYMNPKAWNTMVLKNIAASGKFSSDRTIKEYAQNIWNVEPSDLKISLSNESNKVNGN
UniProt P35998: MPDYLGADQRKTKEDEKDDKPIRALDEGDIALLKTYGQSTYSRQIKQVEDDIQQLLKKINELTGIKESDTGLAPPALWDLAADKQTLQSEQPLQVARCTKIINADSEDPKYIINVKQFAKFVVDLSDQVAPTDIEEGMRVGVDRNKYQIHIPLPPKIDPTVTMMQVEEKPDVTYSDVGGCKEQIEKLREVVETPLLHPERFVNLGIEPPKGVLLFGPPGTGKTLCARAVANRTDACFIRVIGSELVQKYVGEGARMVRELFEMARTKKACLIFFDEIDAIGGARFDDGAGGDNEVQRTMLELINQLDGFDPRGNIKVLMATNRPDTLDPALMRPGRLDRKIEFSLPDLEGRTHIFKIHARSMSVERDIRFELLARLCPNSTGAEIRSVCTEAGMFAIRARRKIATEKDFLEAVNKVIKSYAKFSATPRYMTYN
UniProt Q03393: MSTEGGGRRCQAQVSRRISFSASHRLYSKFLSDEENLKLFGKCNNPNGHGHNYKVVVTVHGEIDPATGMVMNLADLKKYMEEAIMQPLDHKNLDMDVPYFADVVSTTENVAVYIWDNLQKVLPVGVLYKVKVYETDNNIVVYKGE
UniProt P62191: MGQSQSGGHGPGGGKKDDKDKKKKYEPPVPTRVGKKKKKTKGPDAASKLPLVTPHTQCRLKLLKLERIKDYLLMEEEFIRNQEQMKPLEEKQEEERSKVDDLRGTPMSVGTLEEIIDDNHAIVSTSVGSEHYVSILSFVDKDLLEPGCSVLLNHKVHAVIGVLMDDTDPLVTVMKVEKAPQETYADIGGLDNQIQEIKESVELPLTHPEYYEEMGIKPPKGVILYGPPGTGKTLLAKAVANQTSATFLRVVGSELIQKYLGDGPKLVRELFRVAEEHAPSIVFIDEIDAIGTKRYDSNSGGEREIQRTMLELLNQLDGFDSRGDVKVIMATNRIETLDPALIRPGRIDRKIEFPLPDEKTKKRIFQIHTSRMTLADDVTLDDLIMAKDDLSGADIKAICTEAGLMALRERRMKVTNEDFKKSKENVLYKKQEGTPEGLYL
UniProt Q8WUK0: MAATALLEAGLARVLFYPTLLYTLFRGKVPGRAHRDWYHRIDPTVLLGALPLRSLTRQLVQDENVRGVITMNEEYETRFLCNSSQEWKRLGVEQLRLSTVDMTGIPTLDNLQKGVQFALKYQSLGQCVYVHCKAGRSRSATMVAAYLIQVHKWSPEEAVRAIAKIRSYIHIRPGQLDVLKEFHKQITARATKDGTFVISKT
UniProt Q2TAL8: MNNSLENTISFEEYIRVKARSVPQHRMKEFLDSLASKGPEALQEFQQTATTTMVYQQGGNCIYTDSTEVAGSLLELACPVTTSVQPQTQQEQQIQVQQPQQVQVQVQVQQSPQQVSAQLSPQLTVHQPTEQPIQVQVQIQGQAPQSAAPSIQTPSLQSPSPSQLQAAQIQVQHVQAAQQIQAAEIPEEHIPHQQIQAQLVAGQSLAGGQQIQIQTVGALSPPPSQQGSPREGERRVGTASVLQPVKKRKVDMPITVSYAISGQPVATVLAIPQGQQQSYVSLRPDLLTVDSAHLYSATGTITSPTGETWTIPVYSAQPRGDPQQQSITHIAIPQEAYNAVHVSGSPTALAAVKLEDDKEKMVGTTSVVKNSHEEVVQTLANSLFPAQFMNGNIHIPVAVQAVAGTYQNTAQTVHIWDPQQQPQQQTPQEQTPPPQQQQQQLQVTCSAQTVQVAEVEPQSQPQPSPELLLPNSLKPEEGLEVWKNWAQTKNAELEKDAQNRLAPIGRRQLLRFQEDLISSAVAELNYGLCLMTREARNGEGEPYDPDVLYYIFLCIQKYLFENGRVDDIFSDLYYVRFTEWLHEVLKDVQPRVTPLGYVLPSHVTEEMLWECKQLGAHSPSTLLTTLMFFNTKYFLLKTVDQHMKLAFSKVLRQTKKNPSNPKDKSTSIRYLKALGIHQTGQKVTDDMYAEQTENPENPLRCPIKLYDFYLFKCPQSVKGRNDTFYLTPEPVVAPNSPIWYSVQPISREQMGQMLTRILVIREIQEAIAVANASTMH
UniProt Q15185: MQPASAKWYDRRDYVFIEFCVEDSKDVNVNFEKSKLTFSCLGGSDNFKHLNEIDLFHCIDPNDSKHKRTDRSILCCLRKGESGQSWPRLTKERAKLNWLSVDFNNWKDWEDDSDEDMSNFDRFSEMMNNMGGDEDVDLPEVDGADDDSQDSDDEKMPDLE

sotrastaurin = compound: CN1CCN(c2nc(C3=C(c4c[nH]c5ccccc45)C(=O)NC3=O)c3ccccc3n2)CC1 [sotrastaurin]
How it was run: as §1

Tubastatin A = compound: CN1CCc2c(c3ccccc3n2Cc2ccc(C(=O)NO)cc2)C1 [Tubastatin A]
How it was run: as §1

[1] = compound: CNC(=O)C1=CC=CC=C1NC2=NC(=NC=C2Cl)NC3=C(C=C(C=C3)N4CCOCC4)OC
How it was run: as §1

defactinib = compound: CNC(=O)c1ccc(Nc2ncc(C(F)(F)F)c(NCc3nccnc3N(C)S(C)(=O)=O)n2)cc1 [defactinib]
How it was run: as §1

rucaparib = compound: CNCc1ccc(-c2[nH]c3cc(F)cc4c3c2CCNC4=O)cc1 [rucaparib]
How it was run: as §1

[2] = compound: CNc1nc(-c2ccc3c(N)n[nH]c3c2)cc(N2C[C@@H](C(=O)NC3CCCCC3)CC[C@H]2C)n1
How it was run: as §1

encorafenib = compound: COC(=O)N[C@@H](C)CNc1nccc(-c2cn(C(C)C)nc2-c2cc(Cl)cc(NS(C)(=O)=O)c2F)n1 [encorafenib]
How it was run: as §1

[3] = compound: COC(=O)[C@H](CCSC)NC(=O)C1=C(C=C(C=C1)NC[C@H](CS)N)C2=CC=CC=C2
How it was run: as §1

alvocidib = compound: CN1CC[C@H](c2c(O)cc(O)c3c(=O)cc(-c4ccccc4Cl)oc23)[C@H](O)C1 [alvocidib]
How it was run: as §1

Target	log2 fold change (saracatinib)	log2 fold change (sotrastaurin)	log2 fold change (Tubastatin A)	log2 fold change [1]	log2 fold change (defactinib)	log2 fold change (rucaparib)	log2 fold change [2]	log2 fold change (encorafenib)	log2 fold change [3]	log2 fold change (alvocidib)
PUF60 (UniProt Q9UHX1)	inactive: 0	inactive: -0.035	inactive: 0.048	inactive: -0.197	inactive: -0.173	inactive: -0.003	inactive: -0.007	inactive: 0.049	inactive: -0.012	–
PTBP1 (UniProt P26599)	inactive: -0.009	inactive: -0.014	inactive: 0.062	inactive: -0.021	inactive: -0.208	inactive: 0.009	inactive: 0.015	inactive: 0.064	inactive: -0.032	inactive: -0.099
PVR (UniProt P15151)	inactive: 0.001	inactive: 0.041	inactive: 0.024	–	inactive: -0.107	inactive: -0.017	inactive: 0.023	inactive: -0.023	inactive: -0.003	inactive: -0.072
PTTG1 (UniProt O95997)	inactive: -0.061	inactive: -0.004	inactive: 0.141	inactive: -0.145	inactive: -0.029	inactive: -0.145	inactive: -0.088	inactive: -0.001	inactive: 0.031	–
QDPR (UniProt P09417)	inactive: 0.094	inactive: 0.023	inactive: 0.06	inactive: -0.068	inactive: 0.005	inactive: 0.003	inactive: -0.104	inactive: 0.004	inactive: 0.06	inactive: 0.084
PSMB6 (UniProt P28072)	inactive: -0.027	inactive: -0.017	inactive: 0.019	inactive: -0.022	inactive: 0.089	inactive: -0.043	inactive: 0.011	inactive: 0.03	inactive: 0.017	–
PYROXD1 (UniProt Q8WU10)	inactive: -0.004	inactive: -0.169	inactive: 0.032	inactive: -0.004	inactive: -0.253	–	inactive: -0.007	–	inactive: -0.007	inactive: 0.046
QPRT (UniProt Q15274)	inactive: 0.046	inactive: 0.011	inactive: 0.004	inactive: -0.034	inactive: 0.02	inactive: -0.038	inactive: -0.028	inactive: -0.028	inactive: 0.017	inactive: 0.074
PTGFRN (UniProt Q9P2B2)	inactive: 0.029	inactive: 0.082	inactive: 0	inactive: -0.092	inactive: -0.049	inactive: -0.024	inactive: 0.056	inactive: -0.004	inactive: 0.053	–
PRUNE1 (UniProt Q86TP1)	inactive: -0.071	inactive: -0.045	inactive: 0.017	inactive: 0.007	inactive: -0.05	inactive: 0.027	inactive: 0.033	inactive: 0.006	inactive: 0.005	–
QRSL1 (UniProt Q9H0R6)	inactive: 0.033	inactive: 0.003	inactive: 0.01	inactive: -0.023	inactive: -0.105	inactive: -0.047	inactive: 0.038	inactive: -0.017	inactive: -0.033	–
PTPA (UniProt Q15257)	inactive: 0.009	inactive: 0.068	inactive: -0.029	inactive: -0.036	inactive: -0.033	inactive: -0.045	inactive: -0.012	inactive: 0.012	inactive: 0.003	–
PXK (UniProt Q7Z7A4)	inactive: -0.023	inactive: 0.004	inactive: -0.033	inactive: 0.03	inactive: -0.025	inactive: -0.027	inactive: -0.007	inactive: 0.08	inactive: -0.048	–
PTTG1IP (UniProt P53801)	inactive: 0.021	inactive: -0.03	inactive: -0.085	inactive: 0.062	inactive: -0.011	inactive: 0.013	inactive: -0.246	inactive: -0.052	inactive: 0.129	–
PSMC5 (UniProt P62195)	inactive: -0.041	inactive: -0.004	inactive: -0.013	inactive: -0.028	inactive: 0.066	inactive: 0.025	inactive: 0.065	inactive: 0.02	inactive: 0.009	–
PSMB4 (UniProt P28070)	inactive: -0.012	inactive: 0.026	inactive: -0.002	inactive: -0.031	inactive: 0.038	inactive: 0.019	inactive: -0.032	inactive: 0.011	inactive: 0.006	–

Some of the entries so far, in markdown:

| Target | log2 fold change (saracatinib) | log2 fold change (sotrastaurin) | log2 fold change (Tubastatin A) | log2 fold change [1] | log2 fold change (defactinib) | log2 fold change (rucaparib) | log2 fold change [2] | log2 fold change (encorafenib) | log2 fold change [3] | log2 fold change (alvocidib) |
| --- | --- | --- | --- | --- | --- | --- | --- | --- | --- | --- |
| PUF60 (UniProt Q9UHX1) | inactive: 0 | inactive: -0.035 | inactive: 0.048 | inactive: -0.197 | inactive: -0.173 | inactive: -0.003 | inactive: -0.007 | inactive: 0.049 | inactive: -0.012 | – |
| PTBP1 (UniProt P26599) | inactive: -0.009 | inactive: -0.014 | inactive: 0.062 | inactive: -0.021 | inactive: -0.208 | inactive: 0.009 | inactive: 0.015 | inactive: 0.064 | inactive: -0.032 | inactive: -0.099 |
| PVR (UniProt P15151) | inactive: 0.001 | inactive: 0.041 | inactive: 0.024 | – | inactive: -0.107 | inactive: -0.017 | inactive: 0.023 | inactive: -0.023 | inactive: -0.003 | inactive: -0.072 |
| PYROXD1 (UniProt Q8WU10) | inactive: -0.004 | inactive: -0.169 | inactive: 0.032 | inactive: -0.004 | inactive: -0.253 | – | inactive: -0.007 | – | inactive: -0.007 | inactive: 0.046 |
| QPRT (UniProt Q15274) | inactive: 0.046 | inactive: 0.011 | inactive: 0.004 | inactive: -0.034 | inactive: 0.02 | inactive: -0.038 | inactive: -0.028 | inactive: -0.028 | inactive: 0.017 | inactive: 0.074 |
| PTGFRN (UniProt Q9P2B2) | inactive: 0.029 | inactive: 0.082 | inactive: 0 | inactive: -0.092 | inactive: -0.049 | inactive: -0.024 | inactive: 0.056 | inactive: -0.004 | inactive: 0.053 | – |
| PRUNE1 (UniProt Q86TP1) | inactive: -0.071 | inactive: -0.045 | inactive: 0.017 | inactive: 0.007 | inactive: -0.05 | inactive: 0.027 | inactive: 0.033 | inactive: 0.006 | inactive: 0.005 | – |
| PXK (UniProt Q7Z7A4) | inactive: -0.023 | inactive: 0.004 | inactive: -0.033 | inactive: 0.03 | inactive: -0.025 | inactive: -0.027 | inactive: -0.007 | inactive: 0.08 | inactive: -0.048 | – |
| PTTG1IP (UniProt P53801) | inactive: 0.021 | inactive: -0.03 | inactive: -0.085 | inactive: 0.062 | inactive: -0.011 | inactive: 0.013 | inactive: -0.246 | inactive: -0.052 | inactive: 0.129 | – |

(further entries)

Target	log2 fold change (saracatinib)	log2 fold change (sotrastaurin)	log2 fold change (Tubastatin A)	log2 fold change [1]	log2 fold change (defactinib)	log2 fold change (rucaparib)	log2 fold change [2]	log2 fold change (encorafenib)	log2 fold change [3]	log2 fold change (alvocidib)
PSMD9 (UniProt O00233)	inactive: -0.022	inactive: 0.001	inactive: 0.002	inactive: -0.016	inactive: -0.034	inactive: -0.004	inactive: -0.031	inactive: -0.023	inactive: 0.005	–
PSMC4 (UniProt P43686)	inactive: -0.041	inactive: -0.011	inactive: -0.026	inactive: -0.032	inactive: 0.074	inactive: 0.039	inactive: 0.037	inactive: 0.019	inactive: 0.005	–
PYGL (UniProt P06737)	inactive: 0.063	inactive: -0.006	inactive: -0.007	inactive: -0.185	inactive: -0.039	inactive: -0.028	inactive: -0.065	inactive: 0.037	inactive: 0.008	–
PSMD2 (UniProt Q13200)	inactive: -0.047	inactive: -0.029	inactive: -0.014	inactive: -0.033	inactive: 0.061	inactive: 0.035	inactive: 0.01	inactive: 0.051	inactive: 0.012	–
PTMA (UniProt P06454)	inactive: 0.016	inactive: -0.026	inactive: 0.098	inactive: -0.07	inactive: -0.108	inactive: 0.02	inactive: 0.01	inactive: -0.05	inactive: -0.059	–
PSMC2 (UniProt P35998)	inactive: -0.024	inactive: -0.03	inactive: -0.01	inactive: -0.014	inactive: 0.061	inactive: 0.033	inactive: 0.035	inactive: 0.018	inactive: 0.001	–
PTS (UniProt Q03393)	inactive: 0.058	–	inactive: 0.265	inactive: -0.065	inactive: -0.092	inactive: -0.034	inactive: 0.075	inactive: 0.007	inactive: -0.04	inactive: -0.081
PSMC1 (UniProt P62191)	inactive: -0.062	inactive: -0.022	inactive: -0.009	inactive: -0.019	inactive: 0.083	inactive: 0.043	inactive: 0.024	inactive: 0.022	inactive: -0.001	–
QKI (UniProt Q96PU8)	inactive: -0.004	inactive: -0.001	inactive: 0.062	inactive: -0.044	active: -0.23	inactive: -0.006	inactive: -0.036	inactive: -0.036	inactive: 0.004	–
PSMC3 (UniProt E9PLG2)	inactive: -0.197	inactive: 0.081	inactive: 0.079	–	inactive: 0.172	–	inactive: -0.252	–	inactive: -0.026	–
PSMD1 (UniProt Q99460)	inactive: -0.033	inactive: -0.064	inactive: 0.016	inactive: 0	inactive: 0.087	inactive: -0.003	inactive: 0.048	inactive: 0.062	inactive: 0.018	–
PSPC1 (UniProt Q8WXF1)	inactive: 0.007	inactive: -0.062	inactive: 0.041	inactive: -0.036	active: -0.342	inactive: 0.002	inactive: -0.011	inactive: 0.03	inactive: -0.028	–
PTPMT1 (UniProt Q8WUK0)	inactive: -0.037	inactive: -0.059	inactive: -0.063	inactive: 0.027	inactive: -0.07	inactive: -0.118	inactive: -0.019	inactive: 0.044	inactive: 0.045	–
QRICH1 (UniProt Q2TAL8)	inactive: -0.019	inactive: -0.076	inactive: 0.156	inactive: -0.036	inactive: -0.271	inactive: -0.008	inactive: -0.004	inactive: 0.097	inactive: 0.169	–
PTGES3 (UniProt Q15185)	inactive: -0.023	inactive: -0.057	inactive: 0.023	inactive: 0.088	inactive: -0.205	inactive: -0.059	inactive: 0.034	inactive: 0.032	inactive: -0.068	–
PSEN2 (UniProt P49810)	inactive: 0.212	inactive: 0.244	–	inactive: -0.018	–	–	inactive: -0.121	–	–	–
